According to publication doi:10.1101/134304:

Target: T1, GFP-Aub (Aubergine) (Drosophila) (UniProt O76922)
T1 sequence: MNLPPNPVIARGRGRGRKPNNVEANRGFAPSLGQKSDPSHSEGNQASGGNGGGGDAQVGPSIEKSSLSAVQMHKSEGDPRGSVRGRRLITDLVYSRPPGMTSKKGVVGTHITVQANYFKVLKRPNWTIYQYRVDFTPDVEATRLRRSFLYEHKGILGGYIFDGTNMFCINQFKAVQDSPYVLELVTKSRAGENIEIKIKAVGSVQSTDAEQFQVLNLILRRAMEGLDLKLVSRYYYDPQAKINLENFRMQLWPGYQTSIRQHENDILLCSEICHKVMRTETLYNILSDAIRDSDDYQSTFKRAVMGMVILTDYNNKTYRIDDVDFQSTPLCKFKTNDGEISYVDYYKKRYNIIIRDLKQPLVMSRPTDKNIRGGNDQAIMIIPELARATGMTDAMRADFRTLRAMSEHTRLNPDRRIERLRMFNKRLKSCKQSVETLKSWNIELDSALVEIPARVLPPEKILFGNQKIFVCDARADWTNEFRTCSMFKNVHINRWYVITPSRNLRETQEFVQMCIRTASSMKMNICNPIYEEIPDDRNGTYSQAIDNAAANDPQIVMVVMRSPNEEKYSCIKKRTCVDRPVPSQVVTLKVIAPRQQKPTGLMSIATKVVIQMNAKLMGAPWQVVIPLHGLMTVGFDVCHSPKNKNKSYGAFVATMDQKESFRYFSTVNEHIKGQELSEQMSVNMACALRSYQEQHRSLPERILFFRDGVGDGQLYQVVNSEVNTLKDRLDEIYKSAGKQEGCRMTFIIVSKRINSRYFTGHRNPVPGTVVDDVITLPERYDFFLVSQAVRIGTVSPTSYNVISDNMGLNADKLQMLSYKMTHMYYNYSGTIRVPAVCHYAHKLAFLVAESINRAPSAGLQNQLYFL
Test: co-IP

binding: binds
Substance: CCR4 deadenylase (subunit of the CCR4-NOT deadenylation complex) (Drosophila (endogenous in ovaries))

No constants are given. Whether binding was seen depends on the method and setting. In cells and extracts the contact can be indirect. A result given as binding can be weak or reduced; the word gives no strength. Tags and fused reporters may be left off the sequences shown.
